Experimental findings from paper PMC9430930 are described below.

Protein sequences can lack the tags named with them. For at least one entry, the source does not settle the construct or the ends of the probe. For some of these results: At least one verdict rests on a figure or table, not on a statement of the authors.

The target in the first data set is NupR (NagR2) (Bacillus thuringiensis BMB171) (UniProt A0A0G3E6K4). Kind of data set: EMSA. The settings on record: 10 mM Tris-HCl pH 7.5, 50 mM NaCl, 0.5 mM DTT, 4% glycerol, 200 ng poly(dI-dC) in 10 uL, 25 C, 30 min; 6% native PAGE in 0.5x TBE; recombinant protein; protein details: His; label: Cy5; flanks not given.
With “AAAGGTCAGACATCTTACGT (double strand) [BMB171_RS01930]”, the binding result is listed as “binds”.

Take “AAAGGTCTGATATCATTCTT (double strand) [BMB171_RS26765]”: the binding result is listed as “binds”. Consider “AATAGTAAGACATCAAACCT (double strand) [BMB171_RS26950]”, for which the binding result is “binds”.

Consider “AATGGTCAGACGTCATTCGT (double strand) [BMB171_RS25245]”, for which the binding result is recorded as “binds”.

In the case of “AATGGTCAGACGTTCAACGT (double strand) [BMB171_RS25250]”, the binding result is given as “binds”. On the same count and under the same terms, the entry for “ACAGGTCTGACGTCTATCGT (double strand) [BMB171_RS20290]” is “binds”; for “AGAAGTAAGACGTATTATCT (double strand) [BMB171_RS09485]” it is “binds”; for “AGTGGTAAGACCTATTAAAA (double strand) [BMB171_RS27155]” it is “binds”. For the sequence “AGTGGTATGACAACTCAAAA (double strand) [BMB171_RS26735]”, the binding result is “binds”. “ATTGGTAAGATGTCAAACAT (double strand) [BMB171_RS00930]”: the binding result is listed as “binds”.

With “CGAAGTAAGACAACTGACGA (double strand) [BMB171_RS26545]”, the binding result is listed as “binds”. With “CGACCTCTGATGTAAGACTT (double strand) [BMB171_RS18795]”, the binding result was “binds”. Same read-out and setting: the entry for “GGAGGTCAAACGTCTAATGA (double strand) [BMB171_RS26110]” is “binds”.

In the next data set the test system is NupR (NagR2) (Bacillus thuringiensis BMB171). Kind of data set: EMSA. The settings on record: NupR: 10 mM Tris-HCl pH 7.5, 50 mM NaCl, 0.5 mM DTT, 4% glycerol, 200 ng poly(dI-dC), 25 C 30 min; ComK/CcpA/PurR: 10 mM Tris-HCl pH 8.0, 50 mM KCl, 10 mM EDTA; recombinant protein; residues 1-248; protein details: His; label: Cy5; probe letters rebuilt from the primers and the genome.
Turning to “ATATGTGAATCCTCCACTTCTCCCACAAGTTATTGGTCGTATAACGTATAACGAATGACGTCTGACCATTGTTGTTAAAAAATTTAAAACCCCTAAAACTATTCAACTGTCATCTAAAATCAGTAAGCGTTTACATAAATTGCAATTTATAAAAGGTAGCTTCTTCTCTCCTACCATACTTGAAAGTCTGAAATTGATACCACCTACAAATCAAATTGTAAGCGTTATCTAGACGAAATGCAATATAAATTTTAAAAGATTTTCATATGTTAATATATTCCTAATTAATTGGTTTTTTCATGTAAATTTACCATGAAAATAGCCC (double strand) [nupC2 promoter]”, the binding result is “binds”.

For “CGGACGATGTTACCTCATATATACTTGATAATATGGATCGAGAGTTTCTACCCGGCAACCTTAAATTGCTGGACTATGGGGAAAACTAATGAATATTAGCCTATGCGCAAAAAAGGACTCATATTGATTAGCTTTCTCTCATAGATGAAAGTGAATCCATATGGGTCTTTTTTTATTTTTATTTTTCTAAAAGGTCAGACATCTTACGTATGACATAAAACCTCATTCCTTTATTTTTAGTAATATAACGAGCGTTTTATGTACAAACTTTATACGAACTTCTGAAAGGGGCAACTACATGCAATATGTAATGAGCATTATCGG (double strand) [nupC1 promoter]”, the binding result is given as “binds”. Turning to “GCTATGAGTTCAACAATTACTCCCTTTCCCCTAGCTTCCCTCTACAAAAATAATGTATCTATTCTTCCATTTCATACACTTTATTCTGCAAAAACAATCCATAACGTTATCATAATGTATATATTCCCATAAAAAACATAACCTATTTCATGTCTATTTATTTCATATGTGTTTTTTTGAAGAATTTTCTTTTTATTTAAACTTTTCATTAGACGTTTGACCTCCGATGTCCATTATGATAAGTTACTTAAGATGTTATATTCGTAAACGTATAGACAACTGGTTTATACACTGTTTTTACTATGAGGAAGGAGCATACACTGCATGAATC (double strand) [nupC4 promoter]”, the binding result was “binds”. As to “GGTATAATGAAAAGGGCATCAAGTGAAACTTGATGCTCTTTTTTGTTTTATTCAACTATTTGCAGATAGTAAAAGACGAACATTCGTAGACGTTTTATAATAAAATGTAATTTTTTAAAGAAAAGTGCGGATATGATTTGTGATTTGTGTTAGAATGGAAAATGCCTTTGAAATAAGAGGTTTTATGATCTTTCCTATCCGATTGAAGATTTTGGGGGAGAAATGGAAAGTTCGGATTATTTCTTGTTTTGAATGGTCAGACGTTCAACGTTAATGAAGAGTTAAATGGAGGATTTTATTAATGAAGTTTGTTATGTTCCTTGTAGG (double strand) [nupC3 promoter]”, the binding result is listed as “binds”.

The data set is the same for the next values; noted with them: Zn2+ then EDTA; NupR: 10 mM Tris-HCl pH 7.5, 50 mM NaCl, 0.5 mM DTT, 4% glycerol, 200 ng poly(dI-dC), 25 C 30 min; ComK/CcpA/PurR: 10 mM Tris-HCl pH 8.0, 50 mM KCl, 10 mM EDTA; recombinant protein; residues 1-248; protein details: His; label: Cy5; probe letters rebuilt from the primers and the genome.
As to “TCTTTTCTCTTTTTTCAACTTACAACATAGTACAAATGACTAAACACCAAAATAAGTGTAATTGTCGAATAAATAATAATAATTTTTTAAAATAAAATTTTCACTCTTTATTGCATAAAAAAAACTTTGCACCATAAACATTCCTCATTTCGAGAAAAAGTTCGGCACAAAGATCCTTTACATCCTTTGTTACACACTTTTCCCCTCATAGTCTAGCAATTCATGGTTGCCAGGTAGAAACTTATGGACCTTATCTCCAAGATTATATGAGGCAGTGATTCTTTTCGAAGTAATCTTACCACTTGCTCTCATACGTGTCAACAAAATCTAACATTTTTCTGCATTAAATATCGAACATTTACATAAAACATACTCAAAGTATTCGTATTCTAAAGGGCACCCCTAAATGTAAGCCCTTTCTTTATCGCTGAGTATAGTATATAACAAAAACACTATATAAAAAAGCCTAATTGTAAAAACAATTAGGCTTTTTTTAAGAACTTTTTTCTTGTACATCATTAATGAGTACTTCTCTCGGCCATGGCCCTATAGTGATCGTATTA (double strand) [nupR-p14]”, the binding result is given as “binds”.

The data set is the same for the next values; noted with them: no added metal; NupR: 10 mM Tris-HCl pH 7.5, 50 mM NaCl, 0.5 mM DTT, 4% glycerol, 200 ng poly(dI-dC), 25 C 30 min; ComK/CcpA/PurR: 10 mM Tris-HCl pH 8.0, 50 mM KCl, 10 mM EDTA; recombinant protein; residues 1-248; protein details: His; label: Cy5; probe letters rebuilt from the primers and the genome.
Turning to “TCTTTTCTCTTTTTTCAACTTACAACATAGTACAAATGACTAAACACCAAAATAAGTGTAATTGTCGAATAAATAATAATAATTTTTTAAAATAAAATTTTCACTCTTTATTGCATAAAAAAAACTTTGCACCATAAACATTCCTCATTTCGAGAAAAAGTTCGGCACAAAGATCCTTTACATCCTTTGTTACACACTTTTCCCCTCATAGTCTAGCAATTCATGGTTGCCAGGTAGAAACTTATGGACCTTATCTCCAAGATTATATGAGGCAGTGATTCTTTTCGAAGTAATCTTACCACTTGCTCTCATACGTGTCAACAAAATCTAACATTTTTCTGCATTAAATATCGAACATTTACATAAAACATACTCAAAGTATTCGTATTCTAAAGGGCACCCCTAAATGTAAGCCCTTTCTTTATCGCTGAGTATAGTATATAACAAAAACACTATATAAAAAAGCCTAATTGTAAAAACAATTAGGCTTTTTTTAAGAACTTTTTTCTTGTACATCATTAATGAGTACTTCTCTCGGCCATGGCCCTATAGTGATCGTATTA (double strand) [nupR-p14]”, the binding result is recorded as “binds”.
